Test results reported in PubChem BioAssay AID540276 (National Center for Advancing Translational Sciences (NCATS), 2011).
Where “and” joins values, the source holds several entries; their conditions need not be identical. Identical values can stand only once. Out of some 300,000 compounds screened, about 5,400 (1.8%) were called active. This list was built around the results that the source calls inconclusive (neither active nor inactive); the mix of calls is not that of the screen. Calls come from the whole dose curve; tested in HEK293 cells. A potency beside an inconclusive call is a rough fit, not a confirmed value.

Assay: qHTS for inhibitors of binding or entry into cells for Marburg Virus
Settings: Marburg virus pseudotyped entry inhibition, cell reporter; series mostly up to 37.8 µM
Potency is the fitted concentration of half-maximal effect.

SMILES	Potency
COc1cccc(O)c1CN1CCC(C(=O)Nc2ccc(Oc3cccnc3)cc2)CC1	active: 11.2 µM
Cc1cccc(Cc2cnc(NC(=O)C3=NCCN3)s2)c1	inconclusive: 8.91 µM [activator, partial curve, poor fit]
COc1ccccc1/C=N\Nc1ccccc1[N+](=O)[O-]	inconclusive: 1.26 µM [activator, single point]
CC1=C(C(=O)N2CCCCC2)C(c2cccc(Cl)c2)n2c(nc3ccccc32)N1 (centres undefined)	inactive
COc1ccc(-c2nnc(SCC(=O)c3ccc(C)o3)o2)cc1	inconclusive: 0.794 µM [inhibitor, full curve, poor fit]
C=CCn1c2ccccc2c2nnc(SCC(=O)Nc3c(C)n(C)n(-c4ccccc4)c3=O)nc21	inactive
CC(C)(C)N1C(=O)c2ccccc2NC(=O)N1Cc1ccc(Br)cc1	inconclusive: 8.91 µM [inhibitor, partial curve, poor fit]
CC(=O)Nc1ccc(Oc2ccc3c(c2)C(=O)NC3=O)cc1	inconclusive: 15.8 µM [activator, single point]
COc1ccc(-c2cc(C)no2)cc1S(=O)(=O)NCC(C)c1ccccc1 (centres undefined)	inconclusive: 5.62 µM [inhibitor, full curve, poor fit]
O=C(NCCNc1ccccc1[N+](=O)[O-])c1cc(F)c(F)cc1Cl	inconclusive: 1.26 µM [activator, single point]
O=C(COc1ccccc1[N+](=O)[O-])c1ccccc1	inactive
C/C=C/c1ccc(OCC(=O)NCc2ccccc2OC)c(OC)c1	inactive
CC(CCN1CCCCc2nc(C)c(C)cc21)=NO[C@H](C)c1cn([C@H](CO)Cc2ccccc2)nn1	inconclusive: 0.0335 µM [inhibitor, full curve, poor fit]
OC(c1ccccc1)(C1CCCCC1)C(CN1CCOCC1)c1ccccc1 (centres undefined)	inconclusive: 8.91 µM [inhibitor, partial curve, poor fit]
O=C(CSc1nnc2n(C3CCCCC3)c(=O)c3ccccc3n12)OC1CCCCC1	inactive
O=C(CN1CCCCC1)NNc1nc(-c2ccccc2)c2cc(Cl)ccc2n1	inconclusive: 1.58 µM [inhibitor, full curve, poor fit]
COC(=O)c1ccc(N/C=C/C(=O)c2ccc(OC)c(OC)c2)cc1	inconclusive: 23.1 µM [inhibitor, single point]
OC(CN1CCN(c2cccc(Cl)c2)CC1)C(c1ccccc1)c1ccccc1 (centres undefined)	inconclusive: 10 µM [inhibitor, partial curve]
Cc1cc(C(=O)NC(=S)Nc2ccccc2N2CCOCC2)ccc1[N+](=O)[O-]	inconclusive: 5.62 µM [inhibitor, partial curve, poor fit]
COc1ccc(N(C)S(=O)(=O)c2cccc(C(=O)NC3CCCC(C)C3C)c2)cc1 (centres undefined)	inconclusive: 35.5 µM [inhibitor, single point]
Cc1cccc2cc(C(c3nnnn3C(C)(C)C)N3CCN(C(=O)c4ccco4)CC3)c(=O)[nH]c12 (centres undefined)	inactive
CCN(CC)C(=O)c1oc2ccc(S(=O)(=O)N3CC(C)CC(C)C3)cc2c1C (centres undefined)	inconclusive: 5.62 µM [inhibitor, partial curve, poor fit]

SMILES	Potency
C/C(Cc1ccccc1)=N\NC(=O)CNC(=O)c1ccc(C(C)(C)C)cc1	inconclusive: 12.6 µM [activator, single point]
Cc1c(NC(=O)CN2C(=O)NC3(CCC(C)CC3)C2=O)c(=O)n(-c2ccccc2)n1C (centres undefined)	inconclusive: 31.6 µM [activator, single point]
CCOc1ccc(CCNC(=O)c2ccc3c(c2)N(Cc2ccccc2)C(=O)c2ccccc2S3=O)cc1OCC (centres undefined)	inconclusive: 12.6 µM [inhibitor, single point]
O=C(CN(c1cc(C(F)(F)F)ccc1Cl)S(=O)(=O)c1ccccc1)NCCc1ccccc1	inactive
CC(C)(Oc1ccc(Cl)cc1)C(=O)Nc1ccc2oc(-c3ccncc3)nc2c1	inconclusive: 6.31 µM [inhibitor, single point]
N#Cc1nc(Cc2cccc3ccccc23)oc1NCc1ccc(F)cc1	inconclusive: 22.4 µM [inhibitor, single point]
O=C(CNC(=S)N(Cc1ccccc1)Cc1ccccc1F)NCCc1ccccc1	inconclusive: 8.91 µM [inhibitor, partial curve, poor fit]
COc1ccc(-n2c(C)c(C)c3c(NCCCO)ncnc32)cc1	inconclusive: 3.16 µM [activator, full curve]
Cc1cc(C)cc(OCC(=O)Nc2ccc3c(c2)C(=O)c2ccccc2C3=O)c1	inactive
CC1=NN(C(N)=S)C(=O)C1N=Nc1ccc(O)cc1 (centres undefined)	inconclusive: 7.08 µM [inhibitor, partial curve, poor fit]
COc1ccc(NC(=O)C2CCC(C(C)(C)C)CC2)cc1S(=O)(=O)N1CCCCC1 (centres undefined)	active: 11.2 µM
Cc1nc(N/N=C\c2ccc3c(c2)OCO3)sc1C	inactive
Cc1nc(NC2=NCN(C3CCCCC3C)CN2)nc2ccccc12 (centres undefined)	inactive
CCN(CC)S(=O)(=O)c1cccc(NC(=S)NC(=O)/C=C/c2ccc(S(=O)(=O)N3CCOCC3)cc2)c1	inactive
Cc1sc(-n2cccc2)c(C(C)NC(=O)Nc2ccccc2Cl)c1C (centres undefined)	inconclusive: 8.91 µM [inhibitor, partial curve]
COc1ccc(C(=O)N2CCc3ccccc32)cc1	inconclusive: 32.6 µM [activator, single point]
Cc1cc(C)c(Cn2c3ccccc3c3cnn(CC(=O)NCc4ccc(Cl)cc4)c(=O)c32)c(C)c1	inactive
C=CCN1C(=O)/C(=C/c2cccs2)C(=O)NC1=S	inconclusive: 2.82 µM [inhibitor, full curve, poor fit]
CCCC(=O)Nc1ccc2c(c1)c1ccccc1n2CC	inconclusive: 1.84 µM [inhibitor, partial curve, poor fit]
Cc1ccc(-c2cc(-c3ccccc3Cl)[nH]n2)c(O)c1	inconclusive: 5.8 µM [activator, partial curve, poor fit]
CC(=O)c1coc2c1cc(O)c1ccccc12	inconclusive: 1.64 µM [inhibitor, single point]
COc1ccc(CNC(=O)OCCN2CCN(S(=O)(=O)c3ccc(C)cc3)CCC2=O)cc1	inconclusive: 4.45 µM [inhibitor, partial curve, poor fit] and inconclusive: 731 nM [activator, partial curve, poor fit]

SMILES	Potency
CCOc1ccc(/C=N/NC(=O)C(=O)NCc2ccco2)cc1	inconclusive: 31.6 µM [activator, single point]
CCN1C(=O)NC(=O)C2(CCCC2)C1=O	inconclusive: 0.398 µM [activator, full curve, poor fit]
CCN(Cc1ccccc1)S(=O)(=O)c1ccc(C(=O)N(CCCN(C)C)c2nc3cc(OC)ccc3s2)cc1	inconclusive: 14.1 µM [inhibitor, single point]
Cc1nn(CC(=O)Nc2ccc(Cl)cc2)c(=O)c2cc(-c3ccccc3)nn12	inconclusive: 3.98 µM [inhibitor, full curve]
COc1ccc(C(=O)OCC(=O)N2CCc3ccccc32)cc1S(=O)(=O)N1CCOCC1	inactive
COc1ccc(NC(=O)COc2ccc(S(=O)(=O)NC3CCCCC3)cc2)c(OC)c1	inactive
O=C(NCCCN1CCCCC1)c1ccc2c(=O)n(CCc3ccccc3)c(=O)[nH]c2c1	inconclusive: 35.5 µM [inhibitor, single point]
NCCS(=O)(=O)NC1CCCCC1	inconclusive: 7.94 µM [activator, partial curve]
CCc1ccc(C(=O)Nc2cccc(-c3nn[nH]n3)c2)s1	inconclusive: 2.51 µM [inhibitor, full curve, poor fit]
Cc1ccc(N2CCN(C(=O)C3CCC(=O)N(Cc4ccc(Cl)cc4)C3)CC2)c(C)c1 (centres undefined)	inactive
O=C(Nc1scc(-c2ccccc2)c1C(=O)O)c1ccccc1F	inconclusive: 7.94 µM [inhibitor, single point]
COc1ccc(C(=O)Nc2nnc(C3=COCCO3)o2)cc1	inconclusive: 14.1 µM [activator, single point]
CC(C)COc1ccc(C(=O)Nc2ccccc2[N+](=O)[O-])cc1	inconclusive: 35.5 µM [inhibitor, single point]
COc1ccc(-c2nc3nc(C)cc(Nc4cccc(C(F)(F)F)c4)n3n2)cc1	inactive
CCOC(=O)CN(C(=O)CSc1nnc2c(n1)[nH]c1ccc(F)cc12)c1ccccc1	inconclusive: 20.6 µM [inhibitor, single point]
OCCNCc1cc(Br)ccc1OCc1ccccc1	inconclusive: 35.5 µM [inhibitor, single point]
Cc1cccc(CN2CCN(C3CN(Cc4cn(Cc5ccccc5C(F)(F)F)nn4)S(=O)(=O)C3)CC2)c1 (centres undefined)	inconclusive: 0.0499 µM [activator, full curve, poor fit]
COc1cc(CC2C(=O)OCC2C(=O)c2ccc3c(c2)OCO3)cc(OC)c1OC (centres undefined)	inactive
Cc1ccc(S(=O)(=O)c2nnn3c2nc(N2CCC(C)CC2)c2cc(Cl)ccc23)cc1C	inconclusive: 0.562 µM [inhibitor, full curve, poor fit]
Cc1ccccc1NC(=O)CSc1n[nH]c(-c2ccccn2)n1	inconclusive: 3.98 µM [inhibitor, single point]
